The supplement of paper PMC4683952
This is one part of the list. Rule as the data show it: active = 2 or more and inactive = the rest. Single values are uncertain here, since repeats match poorly.

What follows are molecules tested on Lgr5 (MarsCy1-Lgr5-EGFP, U2OS) (assay: cell-surface Lgr5 expression (SCi1 fluorescence, background-subtracted) relative to WT DMSO (fold of DMSO control); higher = more Lgr5 at the plasma membrane). Settings: U2OS MarsCy1-Lgr5-EGFP stable; treatment time: overnight; library: ActiProbe-5K (TimTec); 25 µM.

SMILES	cell-surface Lgr5 expression
CC(=O)CSc1sc2c(O)cc(=O)[nH]c2c1C#N	inactive: 1.14
c1c(-c2csnn2)cc(-c2csnn2)cc1-c1csnn1	inactive: 1.92
O=S(=O)(c1ccc2ccccc2c1)N1CCSC1c1ccccc1 (stereo unspecified)	inactive: 1.44
s1cc(cc1/C=C(\C#N)C#N)CSc1nnc(s1)N	inactive: 1.57
CCCCCCCCCCCCCCCCCC(=O)NCC1CCCO1 (stereo unspecified)	inactive: 1.07
Cc1cc(=O)n2nc(S(C)(=O)=O)nc2[nH]1	inactive: 1.27
OCCCNc1ncnc2sc3c(c12)CCC3	inactive: 0.956
CN1c2ccccc2Sc2ccccc21	inactive: 1.19
Cc1c([N+](=O)[O-])c(=O)n(C)c(=O)n1C	inactive: 0.956
c1cncc(N2CCN(c3cccnc3)CC2)c1	inactive: 1.03
C=CCNC(=O)c1c([N+](=O)[O-])cnn1C	inactive: 1.23
C(=C\CSc1nnc(-c2ccccc2)c(-c2ccccc2)n1)/CSc1nnc(-c2ccccc2)c(-c2ccccc2)n1	inactive: 1.02
Cc1cc(C)n(-c2nc(N3CCOCC3)nc(N3CCOCC3)n2)n1	inactive: 1.09
O=C1/C(=C\c2c(N3CCOCC3)nc3ccccn3c2=O)SC(=S)N1CC1CCCO1 (stereo unspecified)	inactive: 1.39
COn1c(=S)[nH]c2ccccc2c1=O	inactive: 1.14
OCC1(CO)COC(COc2ccccc2)=N1	inactive: 1.24
Cn1cccc1CC(=O)N/N=C\c1ccco1	active: 2.22
COc1cc(OC)c(/C=N\c2ccc(OC(F)(F)F)cc2)cc1Br	inactive: 0.701
S=C(Nc1ccc(Br)cc1)Nc1cccnc1	inactive: 1.11
COc1ccc(C2C3CSCC=C3C(C#N)=C(N)C2(C#N)C#N)cc1 (stereo unspecified)	inactive: 1.12
O=C1NC(=O)C2C1C1C=Cc3ccccc3N1C2C(=O)c1ccc(F)cc1 (stereo unspecified)	inactive: 0.997
O=C1C(=O)N(CCN2C(=O)c3ccccc3C2=O)c2ccccc21	inactive: 1.14

SMILES	cell-surface Lgr5 expression
FC(F)(F)c1cc(-c2cccs2)nc(-n2nccc2C(F)(F)F)n1	inactive: 1.01
c1cc(-c2nnc(Nc3ccc4c(c3)OCCO4)o2)[nH]n1	inactive: 1.22
N#Cc1c(N)nc2c(c1-c1ccco1)CCCC2	inactive: 1.35
CCOC(=O)C1=C(C)NC(C)=C(C(=O)OCC)C1C(=O)O	inactive: 1.18
CCc1sc2sncc2c1Br	inactive: 1.03
CS(=O)(=O)N1CCc2cc(S(=O)(=O)N3CCN(Cc4ccc5c(c4)OCO5)CC3)ccc21	inactive: 1.06
O=C(CCCC(=O)N/N=C/c1ccc([N+](=O)[O-])o1)N/N=C\c1ccc([N+](=O)[O-])o1	inactive: 1.83
Brc1ccc2ncnc(N3CCCCC3)c2c1	inactive: 0.324
CNS(=O)(=O)c1ccc(Br)s1	inactive: 0.988
Cc1cc(C)c(C2C3CCC=C3C(C#N)=C(N)C2(C#N)C#N)c(C)c1 (stereo unspecified)	inactive: 1.34
Nc1nc(=O)cc(Cl)[nH]1	inactive: 0.868
O=C1/C(=C/C=C/C2=C(O)c3ccccc3S2(=O)=O)S(=O)(=O)c2ccccc21	inactive: 1.26
Oc1c(Br)cc(Br)cc1/C=N\c1cc(Cl)ccc1Cl	inactive: 1.04
NNC(=O)C1CC2CC1CC2C(=O)NN (stereo unspecified)	inactive: 1.24
O=[N+]([O-])c1ccc(OS(=O)(=O)N2CCCC(C(F)(F)F)C2)cc1 (stereo unspecified)	inactive: 1.29
N#Cc1c(NC(=S)Nc2ccccc2)sc2c1CCC2	inactive: 0.964
Cc1ccc(NC(=O)OC(C)(C)C)s1	inactive: 1.24
COC(=O)CSc1sc2c(O)nc(=O)[nH]c2c1C#N	inactive: 0.996
NC1=NN=C(c2ccc3c(c2)OCCO3)CS1	inactive: 0.813
CC1=C(C)SC(=C2Sc3nc(O)[nH]c(=O)c3S2)S1	inactive: 1.05
Cn1c(=O)c2c(nc3n(CCO)c(C45CC6CC(CC(C6)C4)C5)cn23)n(C)c1=O	inactive: 1.19
CN(CC12CC3CC(CC(C3)C1)C2)S(=O)(=O)c1ccc2sc(=O)[nH]c2c1	inactive: 1.09

In the list so far, 4 have an aryl thioether with sulfur outside any ring.
SMILES	cell-surface Lgr5 expression
CC(=O)CSc1sc2c(O)cc(=O)[nH]c2c1C#N	inactive: 1.14
s1cc(cc1/C=C(\C#N)C#N)CSc1nnc(s1)N	inactive: 1.57
C(=C\CSc1nnc(-c2ccccc2)c(-c2ccccc2)n1)/CSc1nnc(-c2ccccc2)c(-c2ccccc2)n1	inactive: 1.02
COC(=O)CSc1sc2c(O)nc(=O)[nH]c2c1C#N	inactive: 0.996

(list continues)

SMILES	cell-surface Lgr5 expression
CC(C)NC(=O)C(=O)NC1CC(C)(C)NC(C)(C)C1	inactive: 1.16
CCC(C)C(=O)NCC1CCCO1 (stereo unspecified)	inactive: 1.08
C(=N/c1ccc2c(c1)OCCO2)/c1ccc(OC2CSC2)cc1	inactive: 0.937
C#CCSc1nc(C)cc(C)c1C#N	inactive: 1.17
CC1(C(=O)O)COCOC1	inactive: 1.29
c1ccc2c(CSc3nc4ccccc4o3)cccc2c1	inactive: 1.39
O=c1c2cc(O)ccc2oc2ccc(O)cc12	inactive: 1.4
CCc1c(C)[nH]n(-c2nnn[nH]2)c1=O	inactive: 1.13
O=S(=O)([O-])C/C(=C\c1ccc(Cl)cc1)c1cc[n+](CCO)cc1	inactive: 1.24
CC1=C(N(C)CS(=O)(=O)[O][Na])CN(c2ccccc2)N1C.O	inactive: 1.1
Cc1cc(S(=O)(=O)N2CCCC2)c(C)s1	inactive: 1.14
CCN1CC2=C(OC(N)=C(C#N)C2c2cccs2)/C(=C/c2cccs2)C1 (stereo unspecified)	inactive: 1.08
Cc1cc(C)[n+]2cc(S(=O)(=O)[O-])sc2n1	inactive: 1.6
COc1cc(-c2nnc(S)o2)cc(OC)c1OC	inactive: 1.21
Oc1ccc(Br)cc1/C=N/n1cnnc1	inactive: 0.832
Cc1ccc2nc(NC(=N)N)nc(C)c2c1	active: 2.79
CC12CCC3c4ccc(O)cc4CCC3C1CCC2O (stereo unspecified)	inactive: 1.3
FC(F)(F)c1n[nH]cc1Br	inactive: 1.1
O=C1NC(=O)[C@H]2[C@@H]1[C@@H](C(=O)c1ccccc1)N1c3ccccc3C=C[C@H]21	inactive: 1.22
O=C(N/N=C\c1ccc([N+](=O)[O-])o1)N/N=C\c1ccc([N+](=O)[O-])o1	inactive: 1.07
CC1(C(=O)Nc2nc3c(s2)CCCCC3)CC1(Cl)Cl (stereo unspecified)	inactive: 1.17
Nc1nonc1/C(=N\O)N1CCOCC1	inactive: 1.21
